Data as given in patent US10144727B2, “Deoxynojirimycin derivatives and methods of their using” (priority 2013, dated 2018).
Some of these results come from one statement about several compounds together. At least one compound was matched to its structure with a doubt left.

Test system: influenza A/Texas/36/91 (H1N1)
Test: Efficacy of selected iminosugars in mice; Influenza A/Texas/36/91 (H1N1) challenge
Format: in vivo, BALB/c mice
Details: 100 mg/kg oral TID for 10 days, infected ~1 LD90
Description: Study Summary: This study analyzed the toxicity and efficacy of UV-8, UV-9, UV-10, UV-11, and UV-12 in mice during an H1N1 influenza infection. […] In the current study, we examined delivery doses of UV-4B. UV-8, UV-9, UV-10. […]
UV-8, -9, -10, -11, -12, and UV-4B were prepared in H2O at 20 mg/ml for a delivery dose of 100 mg/kg, assuming ˜20 g mice given 0.1 mL of compound. […] Weights, temperature, and survival were monitored and used for evaluation of protective efficacy and toxicity of each analog. […]
1. […] After dosing, mice were returned to their cages and monitored for any distress related to dosing. […]
2. Mice were weighed daily on an Ohause scale and the weights were recorded.
3. All animals had chips implanted that monitored the body temperature. The temperatures were recorded daily.
4. Survival and health of each mouse was evaluated three times a day using a scoring system of 1-7.
5. Mice were euthanized when scored at 5 or above (Very Sick; Very Rufftled Coat; Closed, inset eyes; Slow to no movement; Will return to upright position if put on its side; extremely lethargic).

OCC1C(O)C(O)C(O)CN1CCCCCCCCC1CCCO1 (mixture of isomers) [UV-12]
MTD: > 13 days

COCCCCCCCCCN1C[C@H](O)[C@@H](O)[C@H](O)[C@H]1CO [UV-4B, N-9-methoxynonyl-deoxynojirimycin, reference compound]
MTD: > 13 days
